The nature of the data set: Material characterization (BOD5, COD, TOC). As to conditions: Standard Methods for the Examination of Water and Wastewater, 17th Edition; preliminary results.

On to `OCC(O)CO` [Glycerin, 1,2,3-Propanetriol], for which the BOD5 worked out at 468 g/L, the COD is 1,290 g/L and the TOC worked out at 402 g/L.

(Values after patent US20030116748A1, “Environmentally friendly compositions having anti-icing, deicing or graffiti prevention properties” (priority 1995, published 2003).)
